This assay concerns P388 leukemia ip, CD2F1 mice, survival T/C. Kind of assay: NCI In Vivo Anticancer Drug Screen. Data for tumor model P388 Leukemia (intraperitoneal) in CD2F1 (CDF1) mice. As to conditions: T/C endpoint: median survival time, higher T/C = longer survival.
The mark [1] stands for this setting: dose: 200.0 mg/kg/injection, schedule: Q01DX005 (ip), vehicle: saline with Tween-80.
Where [2] appears, read: dose: 100.0 mg/kg/injection, schedule: Q04DX002 (ip), vehicle: saline with Tween-80.
Where [3] appears, read: dose: 400.0 mg/kg/injection, schedule: Q04DX002 (ip), vehicle: saline with Tween-80.
Setting [4] is: dose: 25.0 mg/kg/injection, schedule: Q01DX009 (ip), vehicle: saline with Tween-80.
The mark [5] stands for this setting: dose: 50.0 mg/kg/injection, schedule: Q01DX009 (ip), vehicle: saline with Tween-80.
The mark [6] stands for this setting: dose: 100.0 mg/kg/injection, schedule: Q01DX009 (ip), vehicle: saline with Tween-80.
[7] abbreviates: dose: 400.0 mg/kg/injection, schedule: Q01DX009 (ip), vehicle: saline with Tween-80.
The mark [8] stands for this setting: dose: 200.0 mg/kg/injection, schedule: Q01DX005 (ip), vehicle: Klucel (hydroxypropylcellulose) (HPC).
Where [9] appears, read: dose: 100.0 mg/kg/injection, schedule: Q01DX001 (ip), vehicle: Klucel (hydroxypropylcellulose) (HPC).
Setting [10] is: dose: 200.0 mg/kg/injection, schedule: Q01DX001 (ip), vehicle: Klucel (hydroxypropylcellulose) (HPC).
Where [11] appears, read: dose: 400.0 mg/kg/injection, schedule: Q01DX001 (ip), vehicle: Klucel (hydroxypropylcellulose) (HPC).
[12] abbreviates: dose: 200.0 mg/kg/injection, schedule: Q01DX009 (ip), vehicle: saline with Tween-80.

The list is a part of this screen's results and no random one: it is rich in T/C values a quarter to a half above the control, in often repeated tests (any T/C) and in doses without a T/C. Further doses and runs are listed elsewhere. T/C: endpoint of the treated group in % of that of the vehicle group. Some entries give survivors of the animals treated and no T/C: the source holds a T/C of zero for them, seemingly a mark for toxic or unscored doses. Some survivor counts are full or nearly so, which does not show that the dose was tolerated: the source hardly ever lists a survival T/C far under the control, and the zero likely stands for such cases as well. Survivors were counted at the toxicity check, usually on the fifth day, unless a day is given; later deaths do not show. Schedules are NCI's codes, taken here to give the interval after Q, in days (D) or hours (H), and the number of doses after X. Some entries hold several experiments; the results are listed from low to high. Where survival is the endpoint, this PubChem deposit counts one and a half times the control or more as active, and values a quarter to a half above the control carry no call in these data; other NCI protocols may use other cut-offs.

`CCCC(C)(C(=O)Nc1ccc2nc(C)cc(N)c2c1)C(=O)Nc1ccc2nc(C)cc(N)c2c1`: the survivor count under setting [1] is 3 of 5.
For `Cc1c(CNc2ccc(C(=O)NC(CC(=O)O)CC(=O)O)cc2)ccc2nc(N)nc(N)c12`, the T/C reads like this: (dose: 1.5 mg/kg/injection, schedule: Q01DX009 (ip), vehicle: saline with Tween-80) 127 % of control; (dose: 3.0 mg/kg/injection, schedule: Q01DX009 (ip), vehicle: saline with Tween-80) 145 % of control; (dose: 6.0 mg/kg/injection, schedule: Q01DX009 (ip), vehicle: saline with Tween-80) 140 % of control. Moreover, the survivor count was 5 of 6 (dose: 6.25 mg/kg/injection, schedule: Q04DX003 (ip), vehicle: saline); 6 of 6 (dose: 12.5 mg/kg/injection, schedule: Q01DX009 (ip), vehicle: saline sonified); 4 of 6 (dose: 12.5 mg/kg/injection, schedule: Q04DX003 (ip), vehicle: saline); 5 of 6 (dose: 25.0 mg/kg/injection, schedule: Q01DX009 (ip), vehicle: saline sonified); 4 of 6 (dose: 25.0 mg/kg/injection, schedule: Q04DX003 (ip), vehicle: saline); 4 of 6 (dose: 50.0 mg/kg/injection, schedule: Q01DX009 (ip), vehicle: saline sonified). Moreover, the survivor count is on record as 0 of 6 (dose: 50.0 mg/kg/injection, schedule: Q04DX003 (ip), vehicle: saline) and 6 of 6 (dose: 75.0 mg/kg/injection, schedule: Q04DX003 (ip), vehicle: saline sonified).
For the compound `O=C(N/N=c1/sc2ccccc2n1Cc1ccccc1)c1ccncc1`, the survivor count was 6 of 6 (dose: 50.0 mg/kg/injection, schedule: Q01DX009 (ip), vehicle: Klucel (hydroxypropylcellulose) (HPC)); 6 of 6 (dose: 100.0 mg/kg/injection, schedule: Q01DX009 (ip), vehicle: Klucel (hydroxypropylcellulose) (HPC)); 2 of 6 (dose: 200.0 mg/kg/injection, schedule: Q01DX009 (ip), vehicle: Klucel (hydroxypropylcellulose) (HPC)).
Take `CN(c1ccccc1)C1C2=C(OC(=O)C1(Cl)Cl)c1sc(-c3ccccc3)nc1CC2` (stereo unspecified): the survivor count runs as follows: under setting [2], 6 of 6; under setting [3], 6 of 6.
For the compound `CCOc1ccccc1NC(=O)/C(Cl)=C(\Cl)C(=O)O`, under “dose: 240.0 mg/kg/injection, schedule: Q01DX005 (ip), vehicle: saline with Tween-80”, the survivor count is 0 of 6.
As for `CCCCNC(=O)OCc1c(COC(=O)NCCCC)c(-c2ccc(Cl)c(Cl)c2)n2c1CCC2`, the T/C runs as follows: under setting [4], 138 % of control; under setting [5], 137 % of control; under setting [6], 152, 160, 170, 181 % of control. Besides, the survivor count under setting [7] is on record as 5 of 6.
On to `CN1C2=NC(=O)NC(=O)C23OC3c2ccccc21` (stereo unspecified) (tested in a mixture with another compound), for which the survivor count under setting [8] is on record as 0 of 6.
Consider `CC(CCC(=O)O)(c1ccc(OC(=O)Nc2cccc([N+](=O)[O-])c2)cc1)c1ccc(OC(=O)Nc2cccc([N+](=O)[O-])c2)cc1`, for which, under setting [1], the survivor count is given as 6 of 6.
In the case of `O=C1/C(=N\O)Cc2cc(Cl)ccc21`, the survivor count (dose: 100.0 mg/kg/injection, schedule: Q01DX005 (ip), vehicle: Klucel (hydroxypropylcellulose) (HPC)) is recorded as 3 of 5 and the survivor count under setting [8] is recorded as 3 of 5.
For `CNC(=O)OCc1c(-c2ccccc2)nc2n1CCS2`, the survivor count was 0 of 6 under setting [9], 0 of 6 under setting [10] and 0 of 6 under setting [11].
On to `OCC1OC(n2cnc3c2NC=NC[C@H]3O)C(O)C1O` (stereo partly specified), for which the survivor count is 5 of 5 (dose: 3.13 mg/kg/injection, schedule: Q01DX005 (ip), vehicle: saline); 5 of 5 (dose: 6.25 mg/kg/injection, schedule: Q01DX005 (ip), vehicle: saline); 5 of 5 (dose: 6.25 mg/kg/injection, schedule: Q01DX009 (ip), vehicle: saline); 5 of 5 (dose: 12.5 mg/kg/injection, schedule: Q01DX005 (ip), vehicle: saline); 5 of 5 (dose: 12.5 mg/kg/injection, schedule: Q01DX009 (ip), vehicle: saline); 5 of 5 (dose: 25.0 mg/kg/injection, schedule: Q01DX005 (ip), vehicle: saline). In addition, the survivor count reads like this: (dose: 25.0 mg/kg/injection, schedule: Q01DX009 (ip), vehicle: saline) 5 of 5 and 6 of 6; (dose: 50.0 mg/kg/injection, schedule: Q01DX005 (ip), vehicle: saline) 5 of 5; (dose: 50.0 mg/kg/injection, schedule: Q01DX009 (ip), vehicle: saline) 4 of 6; (dose: 100.0 mg/kg/injection, schedule: Q01DX009 (ip), vehicle: saline) 2 of 6.
Consider `CC(C)CC[NH-].CC(C)CC[NH-].[Cl][Pt+2]([Cl])([Cl])[Cl]`, for which the T/C by setting is: (dose: 12.5 mg/kg/injection, schedule: Q01DX009 (ip), vehicle: saline with Tween-80) 128 % of control; under setting [4], 146 % of control; under setting [5], 146 % of control. In addition, under setting [12], the survivor count was 3 of 3.
For the compound `O=NN(CCCl)C(=O)NCCO`, for the setting “dose: 0.78 mg/kg/injection, schedule: Q01DX005 (ip), vehicle: water”, the T/C was 138 % of control. In addition, the survivor count runs as follows: (dose: 12.5 mg/kg/injection, schedule: Q01DX005 (ip), vehicle: water) 6 of 6; (dose: 25.0 mg/kg/injection, schedule: Q01DX005 (ip), vehicle: water) 4 of 6; (dose: 50.0 mg/kg/injection, schedule: Q01DX005 (ip), vehicle: water) 2 of 6; (dose: 100.0 mg/kg/injection, schedule: Q01DX005 (ip), vehicle: water) 0 of 6.
Consider `CCC(C)c1cnc(CC(C)C)c(=O)n1O` (stereo unspecified), for which the survivor count reads like this: under setting [6], 3 of 6; under setting [12], 0 of 6; under setting [7], 0 of 6.
Consider `CC(C)NC(=O)c1ccc(CBr)cc1`, for which the survivor count is reported as 6 of 6 (dose: 25.0 mg/kg/injection, schedule: Q01DX009 (ip), vehicle: other); 4 of 6 (dose: 50.0 mg/kg/injection, schedule: Q01DX009 (ip), vehicle: other); 2 of 6 (dose: 100.0 mg/kg/injection, schedule: Q01DX009 (ip), vehicle: other); 0 of 6 (dose: 200.0 mg/kg/injection, schedule: Q01DX009 (ip), vehicle: other); 0 of 6 (dose: 400.0 mg/kg/injection, schedule: Q01DX009 (ip), vehicle: other).
For `CO[C@@H]1C2=CC=CC=C[C@H]2n2c(=O)n(-c3ccccc3)c(=O)n21`, the survivor count under setting [8] is on record as 5 of 5.
Consider `C1=NC2=C(CCc3ccccc32)C2=NCCN12`, for which the survivor count was 0 of 6 under setting [2]; 0 of 6 (dose: 200.0 mg/kg/injection, schedule: Q04DX002 (ip), vehicle: saline with Tween-80); 1 of 6 under setting [3].
Take `O=C(O)N1CCc2c(sc3ccccc23)C1`: the survivor count is 1 of 6 and 3 of 6 under setting [9]; 0 of 6 under setting [10]; 0 of 6 under setting [11].
For the compound `CSC(C)(C(=N)C#N)N(C)C` (stereo unspecified), the survivor count is, setting by setting: (dose: 100.0 mg/kg/injection, schedule: Q04DX003 (ip), vehicle: saline with Tween-80) 0 of 6; (dose: 200.0 mg/kg/injection, schedule: Q04DX003 (ip), vehicle: saline with Tween-80) 0 of 6; (dose: 400.0 mg/kg/injection, schedule: Q04DX003 (ip), vehicle: saline with Tween-80) 0 of 6.

The record behind these values is PubChem BioAssay AID330 (DTP/NCI, 2004).
